# Measurements: PubChem BioAssay AID624291 (National Center for Advancing Translational Sciences (NCATS), 2012)
# Hit rate of the full screen: of about 350,000 compounds, about 220 (0.063%) were called active. The inconclusive results got no clear call from the source; some entries with a clear call stand among them for comparison. Calls follow the shape of the dose curve; as a rule, active = well fitted activation curve with a large enough effect; inconclusive = small, poorly fitted or top-dose-only effect; inactive = no such curve, though single readings can be large or run the other way. Potencies beside an inconclusive call are fits to weak or partial responses and may not hold up.
# Test: qHTS for Activators of Integrin-Mediated Alleviation for Muscular Dystrophy; also: nearly all actives have a fitted effect of over 60% in size
# Settings: alpha7betagal myoblasts, beta-gal FDG fluorescence, 48 h; series mostly up to 38.3 µM
# Outline: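 alpha7betagal+/- myoblasts (passage 13, 250/well) treated 48 h at 37C with compounds at 1:260 dilution of DMSO stock. Lysed, then beta-galactosidase activity read as FDG fluorescence (ex 480/em 540) after 30 min, with pre-read for autofluorescence.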
# Potency is read from the fitted curve at half-maximal effect.
row,SMILES,Potency
1,O=C(NC(=S)Nc1ccc(F)cc1)C1CCCCC1,inactive
2,COc1ccc(S(=O)(=O)N2CCSC2C)cc1C (centres undefined),"inconclusive: 28.2 µM [activator, single point]"
3,CC1CCC/C(=N\NS(=O)(=O)c2ccccc2)C1 (centres undefined),"inconclusive: 5.01 µM [activator, single point]"
4,O=C(O)CC1C(=O)OCN1C(=O)OCc1ccccc1 (centres undefined),"inconclusive: 31.6 µM [activator, partial curve, poor fit]"
5,O=C(NCc1ccccc1)c1c[nH]c2ccccc2c1=O,"inconclusive: 5.01 µM [activator, single point]"
6,CCN(CC)c1ccc(CNC(=O)C/C(C)=N/NC(=O)COc2ccc(C)cc2Br)cc1,"inconclusive: 0.447 µM [activator, partial curve, poor fit]"
7,CCn1cc(S(=O)(=O)Nc2cc(C)ccc2F)cn1,"inconclusive: 3.55 µM [activator, single point]"
8,C=CCSc1ccccc1C(=O)Nc1ncn[nH]1,"inconclusive: 10 µM [activator, partial curve, poor fit]"
9,COCc1[nH]nc2c1C(c1ccc(OC)c(OC)c1)C(C#N)=C(N)O2 (centres undefined),inactive
10,Cc1cc(C(=O)CS(=O)(=O)c2ccc(F)cc2)cc(C)c1O,"inconclusive: 2.24 µM [activator, full curve, poor fit]"
11,O=C(NCC1COc2ccccc2O1)c1ccc(NC(=O)C(c2ccccc2)c2ccccc2)cc1 (centres undefined),"inconclusive: 28.2 µM [activator, single point]"
12,O=C(COC(=O)CCc1ccc(S(=O)(=O)N2CCOCC2)cc1)NC1CCCC1,"inconclusive: 11.2 µM [activator, partial curve, poor fit]"
13,CNc1nnc(SCC(=O)N2c3ccccc3NC(=O)CC2C)s1 (centres undefined),inactive
14,Cc1cccc(CSc2nc3c(cc2C#N)CCC3)c1,inactive
15,CCN(CC)C(=O)CSc1ncccc1-c1nc2ccccc2[nH]1,"inconclusive: 28.2 µM [activator, single point]"
16,CC1CCN(C(=O)Cn2cc([N+](=O)[O-])ccc2=O)c2ccccc2S1 (centres undefined),"inconclusive: 31.6 µM [activator, single point]"
17,CN(c1ccccc1)S(=O)(=O)c1ccc2c(c1)OCCO2,inactive
18,COc1cccc(/C=C2\SC(=S)NC2=O)c1OS(=O)(=O)c1ccc(NC(C)=O)cc1,"inconclusive: 28.2 µM [activator, single point]"
19,O=C(CSc1ccccc1)Nc1ccc2c(c1)C(=O)NC2=O,"inconclusive: 1 µM [activator, single point]"
20,Cn1cncc1C#Cc1c(C=O)n(C)c2ccccc12,"inconclusive: 2.51 µM [activator, partial curve, poor fit]"
21,C=CCC1=C/C(=C\c2c(N)n3nc(CC(=O)N4CCOCC4)sc3nc2=O)C=C(OC)C1=O,"inconclusive: 5.01 µM [activator, single point]"
22,CCN(CC)C(=O)C(=O)Nc1ccc(F)c(Cl)c1,inactive

row,SMILES,Potency
1,CCC(Oc1ccccc1)C(=O)NC1C(=O)N2C1SC(C)(C)C2C(=O)O (centres undefined),"inconclusive: 5.01 µM [activator, single point]"
2,COc1ccc(S(=O)(=O)N2CCC(CN3C(=O)c4cccc5cccc(c45)C3=O)CC2)cc1,"inconclusive: 2.82 µM [activator, single point]"
3,Cc1ccc(N=C2SC(C(=O)Nc3ccc(OC(F)(F)F)cc3)C(N)=C2C(=O)Nc2c(C)cc(C)cc2C)cc1 (centres undefined),"inconclusive: 10 µM [activator, partial curve]"
4,COc1cccc(CNc2nc3ccccc3n2C)c1O,"inconclusive: 3.55 µM [activator, partial curve, poor fit]"
5,CC(=O)Nc1sc(N/N=C/c2ccc(N(C)C)cc2)nc1-c1ccc(C)cc1,"inconclusive: 28.2 µM [activator, partial curve, poor fit]"
6,CN=c1scc(-c2cccs2)n1/N=C/c1ccccc1O,inactive
7,O=C(CSc1ccccn1)c1ccc2c(c1)OCO2,inactive
8,Cc1ccc(-n2nnnc2-c2cccs2)cc1[N+](=O)[O-],inactive
9,COc1ccc(CCNC(=O)CSc2nn3c(=O)c(C)nnc3s2)cc1OC,"inconclusive: 11.2 µM [activator, single point]"
10,O=C(COC(=O)/C=C/c1cccc(F)c1)NC(=O)NC1CCCC1,inactive
11,COc1cc2c(cc1OC)[C@@H](Cc1ccc(OCCC#N)cc1)N(C)CC2,inactive
12,C/C(=N\NC(=O)C12CCC(C)(C(=O)O1)C2(C)C)c1ccccc1O (centres undefined),inactive
13,CCOc1ccc(NC(=O)CN2C(=O)CCSc3ccc(S(=O)(=O)N4CCCC4)cc32)cc1,inactive
14,COCCn1c(N)c(C(=O)Nc2sc3c(c2C(=O)OC)CCCC3)c2nc3ccccc3nc21,"inconclusive: 6.31 µM [activator, partial curve, poor fit]"
15,CC(C)c1ccc(NC(=O)c2ccccc2NC(=O)C2CC=CCC2C(=O)O)cc1 (centres undefined),"inconclusive: 4.47 µM [activator, single point]"
16,COc1ccc(S(=O)(=O)N2CCCC(C(=O)NCCc3ccccc3)C2)cc1 (centres undefined),"inconclusive: 1 µM [activator, partial curve, poor fit]"
17,CC(=O)N1CCc2cc(Br)cc(S(=O)(=O)N3CCC(C(=O)O)CC3)c21,"inconclusive: 2.82 µM [activator, partial curve, poor fit]"
18,CCC(C)N(CC(=O)Nc1cccc(C)c1C)C(=O)CCl (centres undefined),inactive
19,CCc1nc2oc3cc(OC)ccc3c(=O)c2c(=O)n1-c1ccccc1,"inconclusive: 2.82 µM [activator, full curve, poor fit]"
20,CCC12CSc3nc(Cl)ccc3N1C(=O)C(=O)N2C (centres undefined),"inconclusive: 11.2 µM [activator, single point]"
21,CC1CN(C(=O)Nc2ccc3c(c2)OCCO3)CC(C)O1 (centres undefined),"inconclusive: 2.51 µM [activator, partial curve, poor fit]"
22,COc1ccc(C(=O)Nc2ccc(NC(=O)c3cccc(OC)c3)cn2)cc1,"inconclusive: 11.2 µM [activator, single point]"

# 11 of these compounds, reformatted:
row | SMILES | Potency
10 | Cc1cc(C(=O)CS(=O)(=O)c2ccc(F)cc2)cc(C)c1O | inconclusive: 2.24 µM [activator, full curve, poor fit]
19 | O=C(CSc1ccccc1)Nc1ccc2c(c1)C(=O)NC2=O | inconclusive: 1 µM [activator, single point]
21 | C=CCC1=C/C(=C\c2c(N)n3nc(CC(=O)N4CCOCC4)sc3nc2=O)C=C(OC)C1=O | inconclusive: 5.01 µM [activator, single point]
2 | COc1ccc(S(=O)(=O)N2CCC(CN3C(=O)c4cccc5cccc(c45)C3=O)CC2)cc1 | inconclusive: 2.82 µM [activator, single point]
4 | COc1cccc(CNc2nc3ccccc3n2C)c1O | inconclusive: 3.55 µM [activator, partial curve, poor fit]
5 | CC(=O)Nc1sc(N/N=C/c2ccc(N(C)C)cc2)nc1-c1ccc(C)cc1 | inconclusive: 28.2 µM [activator, partial curve, poor fit]
6 | CN=c1scc(-c2cccs2)n1/N=C/c1ccccc1O | inactive
8 | Cc1ccc(-n2nnnc2-c2cccs2)cc1[N+](=O)[O-] | inactive
12 | C/C(=N\NC(=O)C12CCC(C)(C(=O)O1)C2(C)C)c1ccccc1O (centres undefined) | inactive
13 | CCOc1ccc(NC(=O)CN2C(=O)CCSc3ccc(S(=O)(=O)N4CCCC4)cc32)cc1 | inactive
19 | CCc1nc2oc3cc(OC)ccc3c(=O)c2c(=O)n1-c1ccccc1 | inconclusive: 2.82 µM [activator, full curve, poor fit]
